No constants are given. Whether binding was seen depends on the method and setting. Binding seen in cells or lysates may run through a third protein. Some results given as binding are weak or reduced against the parent protein; the word gives no strength.

Protein sequences, listed by entry. Tags and fused reporters are not part of them.
UniProt Q9Y572: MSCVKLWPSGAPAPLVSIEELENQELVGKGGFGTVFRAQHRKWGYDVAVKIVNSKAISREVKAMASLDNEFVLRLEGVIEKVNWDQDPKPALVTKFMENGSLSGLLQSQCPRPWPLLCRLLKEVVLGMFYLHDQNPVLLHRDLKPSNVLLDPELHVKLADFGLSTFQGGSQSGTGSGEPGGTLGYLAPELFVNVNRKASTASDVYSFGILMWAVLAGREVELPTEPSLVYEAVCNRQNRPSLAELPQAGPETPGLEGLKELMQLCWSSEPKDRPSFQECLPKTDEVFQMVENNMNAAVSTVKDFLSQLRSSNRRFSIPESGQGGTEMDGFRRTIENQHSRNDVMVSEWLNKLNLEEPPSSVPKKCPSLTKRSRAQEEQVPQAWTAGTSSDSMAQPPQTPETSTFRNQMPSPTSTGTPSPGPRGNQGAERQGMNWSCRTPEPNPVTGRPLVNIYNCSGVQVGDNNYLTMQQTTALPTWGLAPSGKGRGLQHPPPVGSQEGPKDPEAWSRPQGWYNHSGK
UniProt Q13546: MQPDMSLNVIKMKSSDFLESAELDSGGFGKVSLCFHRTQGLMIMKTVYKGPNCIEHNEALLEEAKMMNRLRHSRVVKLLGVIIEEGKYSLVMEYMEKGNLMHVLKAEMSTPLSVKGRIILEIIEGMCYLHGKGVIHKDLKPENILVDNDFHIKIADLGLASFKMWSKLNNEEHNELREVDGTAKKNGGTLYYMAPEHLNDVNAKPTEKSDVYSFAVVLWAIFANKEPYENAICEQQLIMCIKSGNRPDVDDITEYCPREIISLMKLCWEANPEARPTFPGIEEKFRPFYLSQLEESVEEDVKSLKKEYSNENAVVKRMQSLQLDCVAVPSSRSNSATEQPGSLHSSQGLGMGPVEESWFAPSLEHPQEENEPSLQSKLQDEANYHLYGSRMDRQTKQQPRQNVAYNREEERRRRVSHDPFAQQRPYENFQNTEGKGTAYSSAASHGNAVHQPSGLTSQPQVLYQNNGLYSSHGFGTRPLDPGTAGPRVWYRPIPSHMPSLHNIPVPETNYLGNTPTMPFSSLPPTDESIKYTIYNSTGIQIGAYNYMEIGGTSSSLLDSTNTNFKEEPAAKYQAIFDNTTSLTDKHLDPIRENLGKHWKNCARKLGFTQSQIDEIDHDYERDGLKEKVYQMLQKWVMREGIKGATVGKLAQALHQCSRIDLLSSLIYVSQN

This assay has as its target receptor-interacting protein kinase 3 (human (endogenous in AGS and HGC27)) (UniProt Q9Y572). Put plainly: co-IP; 5 ug anti-RIPK3 antibody with 1 mg lysate of AGS or HGC27 cells, untreated or treated with 2 uM gambogic acid for 24 h; 4°C overnight, protein A or G agarose beads, washed 3 times with lysis buffer (20 mM Hepes pH 7.4, 1% Triton X-100, 40 mM KCl); RIPK1, RIPK3, phospho-RIPK3 and MLKL detected by western blot.

As for “receptor-interacting protein kinase 1 (from UniProt Q13546 1-671)”, the binding result is “binds”.

(Values after paper PMC10427235.)
